Among the data in PubChem BioAssay AID1963319 (National Center for Advancing Translational Sciences (NCATS), 2024) are activation (gain of signal) values, retold here.

Amino acid sequences for entries named in this document (tags omitted).
UniProt P08659, whole entry, looked up: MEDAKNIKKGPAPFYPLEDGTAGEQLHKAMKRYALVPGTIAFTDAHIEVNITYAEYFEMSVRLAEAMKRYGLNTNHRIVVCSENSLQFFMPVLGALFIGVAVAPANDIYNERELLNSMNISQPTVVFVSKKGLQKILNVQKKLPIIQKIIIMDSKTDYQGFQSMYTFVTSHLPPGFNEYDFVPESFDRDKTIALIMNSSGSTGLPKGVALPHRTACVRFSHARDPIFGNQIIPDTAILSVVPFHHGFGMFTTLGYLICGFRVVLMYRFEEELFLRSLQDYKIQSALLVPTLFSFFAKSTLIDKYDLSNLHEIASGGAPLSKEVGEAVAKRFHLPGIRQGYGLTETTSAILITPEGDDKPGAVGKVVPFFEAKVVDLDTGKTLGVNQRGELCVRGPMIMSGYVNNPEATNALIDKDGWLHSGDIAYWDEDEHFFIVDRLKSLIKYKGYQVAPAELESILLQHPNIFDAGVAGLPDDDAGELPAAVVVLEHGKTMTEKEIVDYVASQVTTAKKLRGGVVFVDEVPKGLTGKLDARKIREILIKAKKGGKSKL

The whole screen tested about 1,300 compounds, of which about 120 (9.2%) were called active. Roughly 35% stayed inconclusive and do not appear here. Calls follow the shape of the dose curve; as a rule, active = well fitted activation curve with a large enough effect; inconclusive = small, poorly fitted or top-dose-only effect; inactive = flat fitted curve, though single readings scatter. The list shows a part of the results, in another mix than the full data.

This test concerns the target Luciferin 4-monooxygenase (Photinus pyralis) (UniProt P08659). The test can be described thus: Firefly luciferase (FLuc-C-HiBiT) SDR gain of signal screen - plus ATP.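 Also: signal reports ligand binding via conformational change of the enzyme rather than luciferase catalysis; % of control where 0% means no effect; nearly all actives have a fitted effect of over 55% in size.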 Particulars: purified FLuc-C-HiBiT + ATP, HiBiT complementation luminescence; at 49.3 µM (top of the series). The source says: PI: James Inglese Ph.D. National Center for Advancing Translational Sciences (NCATS), National Institute of Health (NIH), Maryland Discovery and optimization of novel protein-binding ligands underlies many of the methods and applications of biology, drug discovery, clinical diagnostics, and environmental toxicology. Assays for detecting the interaction of, for example, a molecule with a macromolecular target also referred to here as the target of interest (TOI) is dependent on a compatible output technology. Depending on the nature and knowledge surrounding the TOI, whether a receptor, enzyme, regulatory subunit or scaffold, or a sequence-defined nucleic acid folded into a complex tertiary structure, assay strategies can vary widely. Here we exploit ligand-biased changes in the structural dynamics of the target protein to control reporter alpha complementation allowing a non-competitive, non-functional, non-separation measure of ligand-target interaction. […]
1. […] HiBiT SDR assay measured using CCD-based camera (ViewLux) with settings as follows: Exposure, 1 sec; Gain, High; Speed, Slow; Binning, 2X. […]
Background: The HiBiT peptide binds its large partner to form an active luciferase.
For the molecule `CN1CCNc2cc(-c3ccc([S+](C)(=O)[O-])cc3)ncc2C1`, the activation (gain of signal) is inactive: 13.9%.
